± gives the standard deviation of the averaged measurements. The entries are a selection whose mix differs from that of the whole data set.
compound: Nc1ncnc2c1ncn2[C@@H]1O[C@H](COP(=O)(O)OP(=O)(O)NP(=O)(O)O)[C@@H](O)[C@H]1O [adenylyl imidodiphosphate]; assay: NP40-soluble protein abundance relative to vehicle (solubility fold change) (ratio); higher = more soluble protein in presence of AMP-PNP; conditions: concentration: 6mM
Procedure, shortened: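 Each value is a fold change relative to the detergent-processed vehicle, calculated per replicate from vsn-normalised intensities. Jurkat crude lysate received eight concentrations (0.1 to 10 mM) for 10 min at room temperature and 3 min at 37 °C, then was solubilised in 0.8% NP40 with benzonase (60 min, 4 °C). The ultracentrifuged supernatant was TMT-labelled and run by LC-MS/MS in three independent experiments.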

Amino acid sequences for entries named in this document (tags omitted). A change or cut given only in a name is not applied to a line headed by its entry.
UniProt Q9BRX5: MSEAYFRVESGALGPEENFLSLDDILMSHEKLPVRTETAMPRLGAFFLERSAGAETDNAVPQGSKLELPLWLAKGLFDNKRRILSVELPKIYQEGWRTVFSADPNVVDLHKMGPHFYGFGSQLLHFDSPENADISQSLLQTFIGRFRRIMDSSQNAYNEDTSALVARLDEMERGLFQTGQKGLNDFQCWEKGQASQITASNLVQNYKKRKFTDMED
UniProt Q9BY44: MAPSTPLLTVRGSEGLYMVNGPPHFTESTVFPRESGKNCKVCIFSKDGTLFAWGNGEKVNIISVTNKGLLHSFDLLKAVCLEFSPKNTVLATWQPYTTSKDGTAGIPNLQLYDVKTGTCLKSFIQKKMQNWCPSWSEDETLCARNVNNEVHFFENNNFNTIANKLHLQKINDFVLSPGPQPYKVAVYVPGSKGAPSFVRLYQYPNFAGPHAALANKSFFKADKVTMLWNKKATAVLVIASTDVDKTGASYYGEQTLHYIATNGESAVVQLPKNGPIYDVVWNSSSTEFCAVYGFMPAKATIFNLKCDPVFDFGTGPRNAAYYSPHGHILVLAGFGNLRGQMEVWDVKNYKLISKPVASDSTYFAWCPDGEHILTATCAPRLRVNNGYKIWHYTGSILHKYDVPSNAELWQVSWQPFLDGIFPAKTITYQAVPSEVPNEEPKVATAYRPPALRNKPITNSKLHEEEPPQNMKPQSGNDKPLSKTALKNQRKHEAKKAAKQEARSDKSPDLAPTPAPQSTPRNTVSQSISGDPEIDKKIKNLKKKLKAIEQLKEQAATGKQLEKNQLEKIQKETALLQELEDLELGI
UniProt Q99728: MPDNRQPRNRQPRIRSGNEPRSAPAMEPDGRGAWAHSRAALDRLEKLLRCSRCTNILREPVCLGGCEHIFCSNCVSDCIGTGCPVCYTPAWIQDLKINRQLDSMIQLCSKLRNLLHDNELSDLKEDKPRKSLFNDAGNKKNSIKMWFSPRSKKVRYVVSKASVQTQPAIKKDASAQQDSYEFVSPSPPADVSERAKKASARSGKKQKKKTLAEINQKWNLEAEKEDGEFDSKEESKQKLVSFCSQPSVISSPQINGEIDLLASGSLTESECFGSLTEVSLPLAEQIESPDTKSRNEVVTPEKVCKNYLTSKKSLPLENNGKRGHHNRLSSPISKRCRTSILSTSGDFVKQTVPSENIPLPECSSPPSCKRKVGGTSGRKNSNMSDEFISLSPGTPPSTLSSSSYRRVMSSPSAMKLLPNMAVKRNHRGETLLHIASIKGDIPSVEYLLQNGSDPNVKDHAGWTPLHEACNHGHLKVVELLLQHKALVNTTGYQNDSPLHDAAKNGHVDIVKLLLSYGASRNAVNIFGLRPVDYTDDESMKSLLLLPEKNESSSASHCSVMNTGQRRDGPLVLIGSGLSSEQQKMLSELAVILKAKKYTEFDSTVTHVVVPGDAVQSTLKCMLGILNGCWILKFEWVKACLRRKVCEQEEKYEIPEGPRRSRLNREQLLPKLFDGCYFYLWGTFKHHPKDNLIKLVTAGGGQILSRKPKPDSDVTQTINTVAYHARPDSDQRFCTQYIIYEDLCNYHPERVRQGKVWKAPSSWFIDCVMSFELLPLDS
UniProt Q9BYB4: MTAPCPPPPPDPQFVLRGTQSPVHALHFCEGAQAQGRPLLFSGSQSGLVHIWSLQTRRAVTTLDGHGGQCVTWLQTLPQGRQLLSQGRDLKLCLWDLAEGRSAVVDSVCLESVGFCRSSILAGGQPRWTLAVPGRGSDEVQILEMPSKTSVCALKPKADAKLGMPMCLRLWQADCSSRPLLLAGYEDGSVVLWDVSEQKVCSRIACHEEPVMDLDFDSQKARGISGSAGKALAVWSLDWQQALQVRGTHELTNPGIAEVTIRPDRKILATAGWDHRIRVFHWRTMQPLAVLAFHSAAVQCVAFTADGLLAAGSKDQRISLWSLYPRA
UniProt Q9BPW8: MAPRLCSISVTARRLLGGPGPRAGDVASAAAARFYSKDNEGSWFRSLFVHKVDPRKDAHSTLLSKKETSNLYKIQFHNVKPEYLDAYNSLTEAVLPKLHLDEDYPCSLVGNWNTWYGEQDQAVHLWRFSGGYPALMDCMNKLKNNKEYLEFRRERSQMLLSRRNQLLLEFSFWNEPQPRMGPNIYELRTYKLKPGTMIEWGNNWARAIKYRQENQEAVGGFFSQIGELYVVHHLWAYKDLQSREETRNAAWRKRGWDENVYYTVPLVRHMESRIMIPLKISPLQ
UniProt Q9BU76: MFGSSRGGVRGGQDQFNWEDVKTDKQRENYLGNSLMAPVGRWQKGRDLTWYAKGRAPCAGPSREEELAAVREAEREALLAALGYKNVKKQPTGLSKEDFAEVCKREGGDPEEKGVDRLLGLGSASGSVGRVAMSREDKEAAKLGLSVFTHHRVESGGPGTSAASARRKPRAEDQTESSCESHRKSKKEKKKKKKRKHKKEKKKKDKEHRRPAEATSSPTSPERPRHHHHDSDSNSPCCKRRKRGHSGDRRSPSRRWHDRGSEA
UniProt Q9BSJ8: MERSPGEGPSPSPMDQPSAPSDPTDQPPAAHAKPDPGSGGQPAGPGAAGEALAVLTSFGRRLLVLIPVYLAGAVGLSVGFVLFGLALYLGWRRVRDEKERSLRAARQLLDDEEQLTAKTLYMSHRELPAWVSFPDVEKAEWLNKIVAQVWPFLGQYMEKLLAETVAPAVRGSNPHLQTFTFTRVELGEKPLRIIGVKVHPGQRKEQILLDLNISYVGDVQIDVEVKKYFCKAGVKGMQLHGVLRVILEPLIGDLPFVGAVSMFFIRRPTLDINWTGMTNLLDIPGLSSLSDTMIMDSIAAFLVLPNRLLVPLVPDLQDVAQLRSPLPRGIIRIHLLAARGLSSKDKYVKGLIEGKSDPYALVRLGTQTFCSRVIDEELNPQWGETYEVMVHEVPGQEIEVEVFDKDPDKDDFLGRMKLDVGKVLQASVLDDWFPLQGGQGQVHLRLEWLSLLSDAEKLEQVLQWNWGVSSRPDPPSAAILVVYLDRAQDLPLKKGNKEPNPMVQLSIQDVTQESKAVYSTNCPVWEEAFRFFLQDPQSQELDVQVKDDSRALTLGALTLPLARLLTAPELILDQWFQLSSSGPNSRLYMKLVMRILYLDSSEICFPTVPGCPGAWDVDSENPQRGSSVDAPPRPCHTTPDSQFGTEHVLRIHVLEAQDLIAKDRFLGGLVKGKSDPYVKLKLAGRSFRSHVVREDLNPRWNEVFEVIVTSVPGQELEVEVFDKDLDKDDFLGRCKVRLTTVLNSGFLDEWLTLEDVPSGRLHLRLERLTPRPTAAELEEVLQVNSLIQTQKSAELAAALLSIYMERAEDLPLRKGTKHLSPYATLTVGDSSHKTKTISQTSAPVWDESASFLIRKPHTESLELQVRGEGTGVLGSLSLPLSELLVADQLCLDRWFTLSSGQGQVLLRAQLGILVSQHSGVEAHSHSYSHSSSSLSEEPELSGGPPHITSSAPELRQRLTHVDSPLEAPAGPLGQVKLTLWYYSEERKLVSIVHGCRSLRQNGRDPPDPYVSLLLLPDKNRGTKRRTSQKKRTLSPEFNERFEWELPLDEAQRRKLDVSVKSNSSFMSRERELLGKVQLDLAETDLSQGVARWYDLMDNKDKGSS
UniProt Q96QU8: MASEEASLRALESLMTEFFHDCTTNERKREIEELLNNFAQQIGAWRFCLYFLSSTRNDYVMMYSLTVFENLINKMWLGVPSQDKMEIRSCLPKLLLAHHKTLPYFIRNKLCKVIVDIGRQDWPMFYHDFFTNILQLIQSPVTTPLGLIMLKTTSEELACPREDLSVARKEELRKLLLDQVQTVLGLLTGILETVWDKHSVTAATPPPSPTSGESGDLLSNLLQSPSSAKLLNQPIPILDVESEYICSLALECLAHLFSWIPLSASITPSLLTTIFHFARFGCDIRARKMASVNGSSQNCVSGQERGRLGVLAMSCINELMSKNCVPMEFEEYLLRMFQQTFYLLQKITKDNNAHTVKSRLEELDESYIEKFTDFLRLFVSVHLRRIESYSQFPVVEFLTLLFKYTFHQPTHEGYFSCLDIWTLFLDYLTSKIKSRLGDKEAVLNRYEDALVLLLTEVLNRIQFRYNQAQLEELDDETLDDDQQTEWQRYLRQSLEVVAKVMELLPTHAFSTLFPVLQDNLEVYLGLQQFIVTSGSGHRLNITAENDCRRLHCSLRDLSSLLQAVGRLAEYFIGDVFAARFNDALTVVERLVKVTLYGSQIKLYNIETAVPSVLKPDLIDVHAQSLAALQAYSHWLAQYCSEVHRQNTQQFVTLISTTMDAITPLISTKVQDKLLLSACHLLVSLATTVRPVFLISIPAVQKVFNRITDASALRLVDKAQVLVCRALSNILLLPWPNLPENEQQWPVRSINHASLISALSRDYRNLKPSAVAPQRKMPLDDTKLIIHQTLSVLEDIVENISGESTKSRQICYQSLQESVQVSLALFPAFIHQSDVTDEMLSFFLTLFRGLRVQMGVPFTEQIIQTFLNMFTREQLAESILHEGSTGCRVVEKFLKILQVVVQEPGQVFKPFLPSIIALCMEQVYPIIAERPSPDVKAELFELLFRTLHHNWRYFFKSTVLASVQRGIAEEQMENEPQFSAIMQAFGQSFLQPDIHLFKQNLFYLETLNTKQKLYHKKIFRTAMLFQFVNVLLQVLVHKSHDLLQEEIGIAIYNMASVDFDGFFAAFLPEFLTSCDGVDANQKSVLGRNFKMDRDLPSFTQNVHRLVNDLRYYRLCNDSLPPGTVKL
UniProt Q99653: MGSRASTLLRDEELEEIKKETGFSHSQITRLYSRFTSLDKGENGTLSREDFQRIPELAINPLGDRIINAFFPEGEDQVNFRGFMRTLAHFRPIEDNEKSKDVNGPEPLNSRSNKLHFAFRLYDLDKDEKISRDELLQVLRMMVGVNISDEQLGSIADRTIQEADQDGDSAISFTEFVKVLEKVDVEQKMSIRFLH
UniProt Q99661: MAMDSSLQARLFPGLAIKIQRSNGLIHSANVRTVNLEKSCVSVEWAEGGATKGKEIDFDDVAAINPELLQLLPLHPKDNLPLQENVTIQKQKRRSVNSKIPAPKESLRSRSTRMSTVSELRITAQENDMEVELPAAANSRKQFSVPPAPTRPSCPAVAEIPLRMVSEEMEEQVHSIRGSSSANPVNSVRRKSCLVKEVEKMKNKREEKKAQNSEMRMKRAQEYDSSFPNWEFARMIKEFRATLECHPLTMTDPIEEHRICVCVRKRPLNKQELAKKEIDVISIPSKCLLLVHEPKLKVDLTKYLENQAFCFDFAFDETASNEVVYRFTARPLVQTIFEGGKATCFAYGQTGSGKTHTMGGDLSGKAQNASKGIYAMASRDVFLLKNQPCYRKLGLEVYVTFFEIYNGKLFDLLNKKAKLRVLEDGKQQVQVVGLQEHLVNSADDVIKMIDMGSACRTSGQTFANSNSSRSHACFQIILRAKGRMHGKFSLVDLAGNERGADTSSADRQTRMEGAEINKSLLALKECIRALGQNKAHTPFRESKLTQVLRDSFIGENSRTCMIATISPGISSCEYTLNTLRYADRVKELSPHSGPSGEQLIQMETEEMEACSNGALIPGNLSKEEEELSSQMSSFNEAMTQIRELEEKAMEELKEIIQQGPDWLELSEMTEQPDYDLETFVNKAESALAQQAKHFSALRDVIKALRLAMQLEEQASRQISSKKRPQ
UniProt Q9BVP2: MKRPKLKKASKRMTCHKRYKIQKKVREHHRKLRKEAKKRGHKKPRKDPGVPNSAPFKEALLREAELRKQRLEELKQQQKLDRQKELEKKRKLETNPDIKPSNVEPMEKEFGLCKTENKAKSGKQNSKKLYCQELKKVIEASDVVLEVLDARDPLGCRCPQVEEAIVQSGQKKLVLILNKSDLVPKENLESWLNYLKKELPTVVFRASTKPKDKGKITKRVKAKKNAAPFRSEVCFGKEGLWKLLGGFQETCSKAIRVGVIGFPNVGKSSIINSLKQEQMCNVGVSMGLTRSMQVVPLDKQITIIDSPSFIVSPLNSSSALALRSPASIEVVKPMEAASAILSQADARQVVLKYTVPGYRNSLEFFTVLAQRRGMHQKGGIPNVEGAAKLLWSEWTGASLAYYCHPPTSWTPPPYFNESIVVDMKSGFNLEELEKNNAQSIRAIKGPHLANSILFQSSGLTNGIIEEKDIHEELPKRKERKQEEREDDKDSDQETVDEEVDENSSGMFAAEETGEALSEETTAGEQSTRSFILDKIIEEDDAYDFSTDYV
UniProt Q9BPX5, whole entry: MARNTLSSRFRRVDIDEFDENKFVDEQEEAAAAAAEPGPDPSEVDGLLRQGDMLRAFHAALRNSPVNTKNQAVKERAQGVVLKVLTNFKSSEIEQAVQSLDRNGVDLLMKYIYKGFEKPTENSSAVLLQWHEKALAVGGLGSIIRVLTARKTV
UniProt Q99436: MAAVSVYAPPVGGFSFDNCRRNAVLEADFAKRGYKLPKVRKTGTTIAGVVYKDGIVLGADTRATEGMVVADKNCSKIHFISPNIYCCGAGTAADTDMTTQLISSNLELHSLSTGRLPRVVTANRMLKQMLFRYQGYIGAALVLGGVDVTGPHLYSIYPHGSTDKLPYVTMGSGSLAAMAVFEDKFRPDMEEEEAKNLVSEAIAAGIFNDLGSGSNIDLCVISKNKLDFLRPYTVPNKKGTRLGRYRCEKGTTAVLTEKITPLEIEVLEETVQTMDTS

Target	NP40-soluble protein abundance
GINS3 (UniProt Q9BRX5)	0.959 ± 0.032
SPATA5L1 (UniProt Q9BVQ7)	1.12 ± 0.083
PIK3R4 (UniProt Q99570)	0.917 ± 0.04
UniProt Q9BY44 and related entries	1.03 ± 0.016
UIMC1 (UniProt Q96RL1)	1.07 ± 0.043
UniProt Q99728 and related entries	1.05 ± 0.023
UniProt Q99549 and related entries	1.08 ± 0.052
NLN (UniProt Q9BYT8)	0.951 ± 0.016
BACH2 (UniProt Q9BYV9)	1.02 ± 0.035
SPAG5 (UniProt Q96R06)	0.946 ± 0.017
UniProt Q9BSC4 and related entries	1.02 ± 0.021
UniProt Q9BUH6	1.11 ± 0.021
POP1 (UniProt Q99575)	0.965 ± 0.056
GNB1L (UniProt Q9BYB4)	0.951 ± 0.012
HIRIP3 (UniProt Q9BW71)	1.19 ± 0.024
NIPSNAP1 (UniProt Q9BPW8)	0.954 ± 0.08
TSG101 (UniProt Q99816)	0.978 ± 0.013
HSD17B10 (UniProt Q99714)	1.1 ± 0.11
PARK7 (UniProt Q99497)	0.969 ± 0.022

Target	NP40-soluble protein abundance
UniProt Q9BU76 and related entries	1.01 ± 0.035
UniProt Q9BS26	1 ± 0.023
BUD13 (UniProt Q9BRD0)	1.02 ± 0.017
UniProt Q9BSJ8 and related entries	0.9491 ± 0.0033
UniProt Q96TA1 and related entries	1.01 ± 0.054
UniProt Q9BU23 and related entries	0.951 ± 0.032
UniProt Q9BTK6	0.95 ± 0.022
UniProt Q96QU8 and related entries	1 ± 0.017
YTHDF1 (UniProt Q9BYJ9)	1.01 ± 0.024
UniProt Q9BRP4 and related entries	0.921 ± 0.03
UniProt Q99653	0.988 ± 0.018
KIF2C (UniProt Q99661)	1.03 ± 0.025
UniProt Q9BVP2 and related entries	1.12 ± 0.12
ARPC5L (UniProt Q9BPX5)	1 ± 0.036
UniProt Q9BV86	0.971 ± 0.042
UniProt Q9BYV8	0.984 ± 0.038
MECR (UniProt Q9BV79)	1.04 ± 0.024
UniProt Q99829 and related entries	1.03 ± 0.062
PSMB7 (UniProt Q99436)	0.928 ± 0.086

same assay, conditions: concentration: 8mM

Target	NP40-soluble protein abundance
GINS3 (UniProt Q9BRX5)	0.954 ± 0.036
SPATA5L1 (UniProt Q9BVQ7)	1.17 ± 0.055
PIK3R4 (UniProt Q99570)	0.929 ± 0.033
UniProt Q9BY44 and related entries	1.01 ± 0.022
UIMC1 (UniProt Q96RL1)	1.03 ± 0.051
UniProt Q99728 and related entries	1.05 ± 0.032
UniProt Q99549 and related entries	1.048 ± 0.0015
NLN (UniProt Q9BYT8)	0.977 ± 0.015
BACH2 (UniProt Q9BYV9)	0.991 ± 0.045
SPAG5 (UniProt Q96R06)	0.908 ± 0.02
UniProt Q9BSC4 and related entries	1.03 ± 0.024
UniProt Q9BUH6	1.08 ± 0.023
POP1 (UniProt Q99575)	0.943 ± 0.053
GNB1L (UniProt Q9BYB4)	0.975 ± 0.02
HIRIP3 (UniProt Q9BW71)	1.14 ± 0.021
NIPSNAP1 (UniProt Q9BPW8)	1.02 ± 0.036
TSG101 (UniProt Q99816)	0.959 ± 0.047
HSD17B10 (UniProt Q99714)	1.1 ± 0.08
PARK7 (UniProt Q99497)	0.926 ± 0.032

Target	NP40-soluble protein abundance
UniProt Q9BU76 and related entries	0.99 ± 0.031
UniProt Q9BS26	1.03 ± 0.022
BUD13 (UniProt Q9BRD0)	1.04 ± 0.042
UniProt Q9BSJ8 and related entries	0.96 ± 0.014
UniProt Q96TA1 and related entries	1.01 ± 0.093
UniProt Q9BU23 and related entries	0.983 ± 0.018
UniProt Q9BTK6	0.968 ± 0.022
UniProt Q96QU8 and related entries	1.03 ± 0.023
YTHDF1 (UniProt Q9BYJ9)	0.997 ± 0.039
UniProt Q9BRP4 and related entries	0.925 ± 0.05
UniProt Q99653	0.976 ± 0.02
KIF2C (UniProt Q99661)	1.01 ± 0.011
UniProt Q9BVP2 and related entries	1.14 ± 0.1
ARPC5L (UniProt Q9BPX5)	0.998 ± 0.036
UniProt Q9BV86	1 ± 0.064
UniProt Q9BYV8	0.954 ± 0.046
MECR (UniProt Q9BV79)	1.048 ± 0.0045
UniProt Q99829 and related entries	1.06 ± 0.076
PSMB7 (UniProt Q99436)	0.918 ± 0.081
